Earlier results, collected in PMC11885506, “Evaluation of a non-animal toolbox informed by adverse outcome pathways for human inhalation safety” (Frontiers in Toxicology, 2025).
Where a name gives a salt, the structure may show the parent alone.

Settings: human, therapeutic dose, single dose of 400 mg via oral route; ref Andreasen et al. (1981); cited from earlier work

CCCCc1oc2ccccc2c1C(=O)c1cc(I)c(OCCN(CC)CC)c(I)c1 [Amiodarone, Amiodarone hydrochloride]
Plasma conc: Plasma conc: 2 μM
